Data as given in publication PMC5972182, “Comparison of a Rat Primary Cell-Based Blood-Brain Barrier Model With Epithelial and Brain Endothelial Cell Lines: Gene Expression and Drug Transport” (Frontiers in Molecular Neuroscience, 2018).

Assay: Permeability across vinblastine-selected VB-Caco-2 cell layers
Details: human

CC(C)c1c(C(=O)Nc2ccccc2)c(-c2ccccc2)c(-c2ccc(F)cc2)n1CC[C@@H](O)C[C@@H](O)CC(=O)O [Atorvastatin, atorvastatin]
Papp A→B: 2.98 ×10⁻⁶ cm/s
